Tested on: Nucleoside hydrolase NH36 of L. (L.) donovani
Assay type: biochemical, Leishmania (L.) donovani
Settings: for fold increased catalytic rate of NH36 versus NH of Cui et al.: NH36 kcat compared to ref 29 kcat
Protocol: BL21DE3 E.coli were transformed with the synthetic plasmid pET 28b encoding the gene of NH36 of Leishmania (L.) donovani (EMBL, Genbank and DDJB data bases, access number AY007193) with a His6tag at the C-terminal. Expression was induced with 0.5 mM IPTG and overnight incubation at 20°C. Purification of NH36 was performed on a column of Ni-NTA Superflow resin (Qiagen, USA) eluted by a stepwise imidazole gradient and monitored by SDS-polyacrylamide gel electrophoresis and protein assay. The extinction coefficient of NH36 is 21.437 mM^-1 cm^-1 at 280 nm, as calculated with the ProtParam program from ExPASy, and was used to estimate protein concentration (http://ca.expasy.org/seqanalref/). The yield of NH36 after purification was 11.87 mg per Liter of bacterial growth culture. Non-specific His-proteins with weak interactions were eluted with 50–100 mM imidazole (S1 Fig). The purified NH36 started to elute with 150 mM imidazole. We used 250 mM of imidazol in elution buffer for purification of NH36.
Steady-state kinetic rates for NH36 were determined on the substrates inosine, guanosine, adenosine, uridine and cytidine. Hypoxanthine and adenine formation were coupled to xanthine oxidase (12.9 mM^-1 cm^-1 at 293 nm and 15.2 mM^-1 cm^-1 at 305 nm, respectively), and the others were followed by direct uv absorbance changes resulting from cleavage of the N-ribosidic bond. Reaction mixtures contained 50 mM Hepes (pH 7.4), 100 mM NaCl and 5 mM of DTT. One unit, and 0.1 unit of xanthine oxidase (XOD) were used as the coupling enzyme to the adenosine and inosine assays, respectively. Spectral changes for hydrolysis of guanosine, uridine and cytidine were 5.4 mM^-1 cm^-1 at 257 nm,1.8 mM^-1 cm^-1 at 280 nm and 1.8 mM^-1 cm^-1 at 288 nm, respectively. Variable concentrations of substrate and appropriate amounts of purified NH36 were added in all assays. The hydrolysis of nucleosides to bases and ribose was followed by continuous recording of optical absorbance after addition of the enzyme, in a CARY 300 UV-visible spectrophotometer. Control rates with no enzyme addition were subtracted from initial rates. Reactions with substrates were conducted at 25°C using 1 cm path length cuvettes containing 1 mL reaction volumes. Kinetic parameters of NH36 were obtained by fitting initial rates to the Michaelis−Menten equation using GraFit 5 (Erithacus Software).

[1] = NH36 kcat compared to ref 13 kcat

Row | Structure (SMILES) | fold increased catalytic rate of NH36 versus NH of L. (L.) major [1] | fold decreased catalytic turnover of NH36 versus NH of L. (L.) major [1] | fold increased catalytic rate of NH36 versus NH of Cui et al.
1 | Nc1ccn([C@@H]2O[C@H](CO)[C@@H](O)[C@H]2O)c(=O)n1 [Cytidine] | 36 fold |  | 
2 | O=c1[nH]cnc2c1ncn2[C@@H]1O[C@H](CO)[C@@H](O)[C@H]1O [Inosine] |  | 11 fold | 1.4 fold
3 | Nc1ncnc2c1ncn2[C@@H]1O[C@H](CO)[C@@H](O)[C@H]1O [Adenosine] | 6 fold |  | 
4 | O=c1ccn([C@@H]2O[C@H](CO)[C@@H](O)[C@H]2O)c(=O)[nH]1 [Uridine] |  |  | 3.6 fold

— publication PMC4409337, “Immucillins Impair Leishmania (L.) infantum chagasi and Leishmania (L.) amazonensis Multiplication In Vitro” (PLoS ONE, 2015)
